{"source": "PubChem BioAssay AID504793 – Drosophila RNAi Screening Center – 2011", "test": "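Knock-downs allowing continued mitosis even though DNA is damaged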 (primary screen)", "system": "Drosophila S2R+ cells", "reagent": "long dsRNA against Drosophila genes, about 0.25 µg dsRNA per well", "timing": "4 days of dsRNA, then 4 hours of drug before read-out", "challenge": "doxorubicin 0.5 µM for 4 hours to cause double-strand breaks, in cells also given a low, harmless dose of dsRNA against nbs to sensitise the assay", "read-out": "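Mitotic index as the number of phospho-histone H3-positive cells in each well following doxorubicin, given as raw counts without normalisation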", "reading the numbers": "mitotic cells: higher = more cells in mitosis, weaker G2 arrest", "rule for the call": "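a call needs confirmation in secondary tests, with other dsRNAs and a check of mitotic timing without damage, not just a high primary count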", "calls": "active = confirmed in follow-up tests; inactive = not confirmed", "note": "The deposit covers about 23,000 reagents; this is an unselected part of those that have a named target and a result. Over the whole deposit, 62 (0.27%) were called active. 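Calls come from follow-up tests whose scores are not deposited, so confirmed genes may have low counts here; counts are not normalised per plate.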 Raw values vary from plate to plate and are shown uncorrected. A plus sign joins genes that one reagent is predicted to hit. Reagent sequences are not shown."}
{"predicted target": "Cyp6t2Psi", "PubChem SID": "SID104181632", "mitotic cells, replicate 1": 8, "Call": "inactive"}
{"predicted target": "Cyp6t2Psi", "PubChem SID": "SID104208044", "mitotic cells, replicate 1": 7, "Call": "inactive"}
{"predicted target": "Tmtc2", "PubChem SID": "SID104203533", "mitotic cells, replicate 1": 4, "Call": "inactive"}
{"predicted target": "RpL13A", "PubChem SID": "SID104192057", "mitotic cells, replicate 1": 7, "Call": "inactive"}
{"predicted target": "RpL13A", "PubChem SID": "SID104205841", "mitotic cells, replicate 1": 8, "Call": "inactive"}
{"predicted target": "Srp54k", "PubChem SID": "SID104191081", "mitotic cells, replicate 1": 5, "Call": "inactive"}
{"predicted target": "vex", "PubChem SID": "SID104199273", "mitotic cells, replicate 1": 9, "Call": "inactive"}
{"predicted target": "vex", "PubChem SID": "SID104199443", "mitotic cells, replicate 1": 11, "Call": "inactive"}
{"predicted target": "vex", "PubChem SID": "SID104201490", "mitotic cells, replicate 1": 6, "Call": "inactive"}
{"predicted target": "vex", "PubChem SID": "SID104204021", "mitotic cells, replicate 1": 6, "Call": "inactive"}
{"predicted target": "CG18367", "PubChem SID": "SID104186337", "mitotic cells, replicate 1": 6, "Call": "inactive"}
{"predicted target": "CG18367", "PubChem SID": "SID104207051", "mitotic cells, replicate 1": 4, "Call": "inactive"}
{"predicted target": "CG31013", "PubChem SID": "SID104196334", "mitotic cells, replicate 1": 14, "Call": "inactive"}
{"predicted target": "CG5199", "PubChem SID": "SID104191562", "mitotic cells, replicate 1": 3, "Call": "inactive"}
{"predicted target": "PGRP-SC2", "PubChem SID": "SID104186273", "mitotic cells, replicate 1": 5, "Call": "inactive"}
{"predicted target": "PGRP-SC2", "PubChem SID": "SID104203995", "mitotic cells, replicate 1": 3, "Call": "inactive"}
{"predicted target": "Syx7", "PubChem SID": "SID104191555", "mitotic cells, replicate 1": 7, "Call": "inactive"}
{"predicted target": "Hsp67Ba", "PubChem SID": "SID104190983", "mitotic cells, replicate 1": 5, "Call": "inactive"}
{"predicted target": "Hsp67Ba", "PubChem SID": "SID104202846", "mitotic cells, replicate 1": 1, "Call": "inactive"}
{"predicted target": "Lcp4", "PubChem SID": "SID104187250", "mitotic cells, replicate 1": 4, "Call": "inactive"}
{"predicted target": "Lcp4", "PubChem SID": "SID104203740", "mitotic cells, replicate 1": 17, "Call": "inactive"}
{"predicted target": "Gnptab", "PubChem SID": "SID104186849", "mitotic cells, replicate 1": 3, "Call": "inactive"}
{"predicted target": "CG1724", "PubChem SID": "SID104200340", "mitotic cells, replicate 1": 3, "Call": "inactive"}
{"predicted target": "CG1724", "PubChem SID": "SID104204212", "mitotic cells, replicate 1": 7, "Call": "inactive"}
{"predicted target": "Ugt302E1", "PubChem SID": "SID104195427", "mitotic cells, replicate 1": 8, "Call": "inactive"}
{"predicted target": "Ugt302E1", "PubChem SID": "SID104207870", "mitotic cells, replicate 1": 9, "Call": "inactive"}
{"predicted target": "DptB", "PubChem SID": "SID104185793", "mitotic cells, replicate 1": 2, "Call": "inactive"}

A few values from above:
Under “Call”, Cyp6t2Psi [SID104181632] is entered as inactive
Entry of CG31013 [SID104196334] in “Call”: inactive

Additional records follow:
{"predicted target": "Csgalnact", "PubChem SID": "SID104186020", "mitotic cells, replicate 1": 6, "Call": "inactive"}
{"predicted target": "UQCR-6.4", "PubChem SID": "SID104186246", "mitotic cells, replicate 1": 8, "Call": "inactive"}
{"predicted target": "UQCR-6.4", "PubChem SID": "SID104207282", "mitotic cells, replicate 1": 2, "Call": "inactive"}
{"predicted target": "CG18404", "PubChem SID": "SID104195115", "mitotic cells, replicate 1": 7, "Call": "inactive"}
{"predicted target": "CG17110", "PubChem SID": "SID104194965", "mitotic cells, replicate 1": 10, "Call": "inactive"}
{"predicted target": "CG7970", "PubChem SID": "SID104188397", "mitotic cells, replicate 1": 5, "Call": "inactive"}
{"predicted target": "CG7970", "PubChem SID": "SID104204634", "mitotic cells, replicate 1": 2, "Call": "inactive"}
{"predicted target": "UQCR-14L", "PubChem SID": "SID104195080", "mitotic cells, replicate 1": 8, "Call": "inactive"}
{"predicted target": "UQCR-14L", "PubChem SID": "SID104201896", "mitotic cells, replicate 1": 5, "Call": "inactive"}
{"predicted target": "UQCR-14L", "PubChem SID": "SID104203963", "mitotic cells, replicate 1": 7, "Call": "inactive"}
{"predicted target": "SdhAL", "PubChem SID": "SID104190331", "mitotic cells, replicate 1": 2, "Call": "inactive"}
{"predicted target": "CG11248", "PubChem SID": "SID104191436", "mitotic cells, replicate 1": 10, "Call": "inactive"}
{"predicted target": "Scgdelta", "PubChem SID": "SID104198336", "mitotic cells, replicate 1": 15, "Call": "inactive"}
{"predicted target": "Kaz1-ORFB + Kaz1-ORFA", "PubChem SID": "SID104188461", "mitotic cells, replicate 1": 10, "Call": "inactive"}
{"predicted target": "S6KL", "PubChem SID": "SID104199141", "mitotic cells, replicate 1": 19, "Call": "inactive"}
{"predicted target": "S6KL", "PubChem SID": "SID104202504", "mitotic cells, replicate 1": 13, "Call": "inactive"}
